From patent US20110059398A1, “PHOTOPOLYMERIZABLE COMPOSITION” (AGFA GRAPHICS NV, priority 2004, published 2011) come the findings set out here.

A short description of the series: Exposure test of the printing plate precursor: sum of the density of the UGRA step wedges (13-step wedge, violet laser 392-417 nm, 86 μJ/cm^2).

As to `S=c1[nH]c2ccccc2o1` [TH-2, mercaptobenzoxazole], the “UGRA Sum mean value” is, setting by setting: (Example 2, Experiment O, co-initiator 0.0061 g (0.0403 mmol) per 26.21 g composition, mean of two plates) 3.33; (Example 2, Experiment P, co-initiator 0.0068 g (0.0450 mmol) per 26.21 g composition, mean of two plates) 3.89.

For the compound `Sc1nc2ccccc2s1` [TH-1, mercaptobenzthiazole], the “UGRA Sum mean value” is, setting by setting: (Example 1, Experiment A, co-initiator 0.0010 g (0.00598 mmol) per 26.21 g composition, mean of two plates, one fully hardened step=1.00) 0.06; (Example 1, Experiment B, co-initiator 0.0020 g (0.0120 mmol) per 26.21 g composition, mean of two plates) 1.93; (Example 1, Experiment C, co-initiator 0.0040 g (0.0239 mmol) per 26.21 g composition, mean of two plates) 3.05; (Example 1, Experiment D, co-initiator 0.0068 g (0.0407 mmol) per 26.21 g composition, mean of two plates) 3.92; (Example 1, Experiment E, co-initiator 0.0100 g (0.0598 mmol) per 26.21 g composition, mean of two plates) 4.00; (Example 1, Experiment F, co-initiator 0.0150 g (0.0897 mmol) per 26.21 g composition, mean of two plates) 4.12. The “UGRA Sum mean value” runs as follows: (Example 1, Experiment G, co-initiator 0.0300 g (0.179 mmol) per 26.21 g composition, mean of two plates) 4.06; (Example 1, Experiment H, co-initiator 0.0500 g (0.299 mmol) per 26.21 g composition, mean of two plates) 3.86; (Example 1, Experiment I, co-initiator 0.1000 g (0.598 mmol) per 26.21 g composition, mean of two plates) 3.31; (Example 2, Experiment L, co-initiator 0.0068 g (0.0407 mmol) per 26.21 g composition, mean of 6 plates) 3.86.

As for `Sc1nnc(SCCCCSc2nnc(S)s2)s1` [II-1], the “UGRA Sum mean value” (Example 2, Experiment S, co-initiator 0.0144 g (0.0406 mmol) per 26.21 g composition, mean of two plates) was found to be 5.21.

Regarding `CC(C)(C)COC(=O)CCS` [TH-3, Neopentylalcohol mono(3-mercaptopropionate)], the “UGRA Sum mean value” (Example 2, Experiment N, co-initiator 0.0796 g (0.452 mmol) per 26.21 g composition, mean of two plates) was “no image”.

`CC(C)(c1ccc2oc(=S)[nH]c2c1)c1ccc2oc(=S)[nH]c2c1` [I-1]: the “UGRA Sum mean value” came out at 4.30 (Example 2, Experiment Q, co-initiator 0.0068 g (0.0199 mmol) per 26.21 g composition, mean of two plates) and 4.76 (Example 2, Experiment R, co-initiator 0.0139 g (0.0406 mmol) per 26.21 g composition, mean of two plates).
